Source: PMC11870507
Results are given in words; binding and its absence hold for the method and conditions named. Binding seen in cells or lysates may run through a third protein. Here binding means that the protein was enriched with, or labelled near, the bait; the list need not be complete.

Amino acid sequences for entries named in this document (tags omitted). A change or cut given only in a name is not applied to a line headed by its entry.
UniProt K4DBH0: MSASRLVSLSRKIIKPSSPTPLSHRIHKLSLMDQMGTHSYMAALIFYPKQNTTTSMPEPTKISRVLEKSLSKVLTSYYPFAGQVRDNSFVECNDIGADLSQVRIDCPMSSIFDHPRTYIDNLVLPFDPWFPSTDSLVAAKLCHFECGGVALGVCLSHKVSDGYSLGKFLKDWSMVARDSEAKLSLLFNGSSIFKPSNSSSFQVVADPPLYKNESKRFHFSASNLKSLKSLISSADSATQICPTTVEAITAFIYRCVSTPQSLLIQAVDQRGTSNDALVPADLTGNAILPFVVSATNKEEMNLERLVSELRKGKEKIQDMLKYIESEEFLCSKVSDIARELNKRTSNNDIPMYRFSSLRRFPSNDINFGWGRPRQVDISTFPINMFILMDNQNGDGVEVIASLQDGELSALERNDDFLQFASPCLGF
UniProt K4D9Y4: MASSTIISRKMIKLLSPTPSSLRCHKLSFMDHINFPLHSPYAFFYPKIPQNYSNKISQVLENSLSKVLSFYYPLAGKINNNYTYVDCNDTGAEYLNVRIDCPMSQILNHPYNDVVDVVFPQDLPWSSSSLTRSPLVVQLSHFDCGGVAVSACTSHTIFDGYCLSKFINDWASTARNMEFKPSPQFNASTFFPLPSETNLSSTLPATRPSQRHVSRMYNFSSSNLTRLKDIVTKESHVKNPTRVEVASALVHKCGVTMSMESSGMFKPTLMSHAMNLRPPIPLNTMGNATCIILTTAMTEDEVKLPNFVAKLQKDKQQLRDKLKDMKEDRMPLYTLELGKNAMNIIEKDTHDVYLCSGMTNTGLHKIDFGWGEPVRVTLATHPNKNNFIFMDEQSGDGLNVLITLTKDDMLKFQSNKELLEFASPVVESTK
UniProt A0A3Q7EQZ9: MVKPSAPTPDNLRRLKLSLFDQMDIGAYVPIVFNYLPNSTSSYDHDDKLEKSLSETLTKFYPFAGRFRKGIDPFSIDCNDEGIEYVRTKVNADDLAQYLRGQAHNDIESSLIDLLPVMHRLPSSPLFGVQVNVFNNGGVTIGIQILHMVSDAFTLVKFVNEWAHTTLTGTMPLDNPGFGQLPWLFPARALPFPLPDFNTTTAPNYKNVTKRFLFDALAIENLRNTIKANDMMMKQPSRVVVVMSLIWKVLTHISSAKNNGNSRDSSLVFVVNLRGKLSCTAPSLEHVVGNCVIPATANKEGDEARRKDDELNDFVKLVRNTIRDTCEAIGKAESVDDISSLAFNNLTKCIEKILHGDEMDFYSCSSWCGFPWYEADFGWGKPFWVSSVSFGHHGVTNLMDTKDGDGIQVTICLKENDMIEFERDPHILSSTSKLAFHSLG
UniProt A0A0U3JNE4: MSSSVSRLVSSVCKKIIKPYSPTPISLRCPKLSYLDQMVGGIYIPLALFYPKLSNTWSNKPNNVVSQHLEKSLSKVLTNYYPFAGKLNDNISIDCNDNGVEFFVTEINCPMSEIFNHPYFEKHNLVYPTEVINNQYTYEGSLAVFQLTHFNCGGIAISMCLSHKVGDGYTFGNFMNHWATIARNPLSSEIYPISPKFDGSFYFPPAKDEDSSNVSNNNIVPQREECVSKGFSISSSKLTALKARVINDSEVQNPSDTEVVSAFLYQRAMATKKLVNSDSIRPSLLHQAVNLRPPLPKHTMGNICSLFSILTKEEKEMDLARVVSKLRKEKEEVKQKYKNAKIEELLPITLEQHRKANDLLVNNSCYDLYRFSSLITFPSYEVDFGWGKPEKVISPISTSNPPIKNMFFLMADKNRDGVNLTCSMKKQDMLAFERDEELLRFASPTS

Legend:
[1] = target: HA-tagged SlASAT1 (Solanum lycopersicum (tomato)) (UniProt K4DBH0); test: co-IP + affinity purification with mass spectrometry; HA-SlASAT1, Flag-SlASAT4 and untagged SlASAT2 and SlASAT3 co-expressed in N. benthamiana leaves; IP with anti-HA or anti-Flag magnetic beads; confirmed by western blot, then proteomics (DIA-PASEF)
[2] = target: Flag-tagged SlASAT4 (Solanum lycopersicum (tomato)); test: as above
[3] = target: Flag-tagged SlASAT4 (Solanum lycopersicum (tomato)); test: affinity purification with mass spectrometry; proteomics of all proteins co-immunoprecipitated with the pull-down of Flag-SlASAT4 from N. benthamiana leaves expressing SlASAT1-4, high detergent stringency, empty vector HA/Flag as control, peptides mapped to the N. benthamiana proteome

| Molecule | binding [1] | binding [2] | binding [3] |
| --- | --- | --- | --- |
| HA-tagged SlASAT1 (from UniProt K4DBH0) (enzyme) |  | binds |  |
| untagged SlASAT3 (from UniProt K4D9Y4) (enzyme) | binds | binds |  |
| NbRanBP1-1a (protein, UniProt A0A387K1P8 1-216) MASSGEPELEKKEVEEEVVEENPSAAADDEDTGAQVAPIVKLQEVSVSTGEENEDVLLDLKSKLYRFDKEGNAWKERGAGTVKLLKHKETGKVRLVMRQSKTLKICANHLVLPTMSIQEHAGNEKSCVWHAADFADGELKEETFCIRFASIENCKSFKEKVEEIAESQQTKSEESEGAVAAATELIEKLSVESKDKEDKPEGKEAPAKTEENVEKN |  |  | binds |

Continued, values first:

| binding [1] | binding [2] | binding [3] | Molecule |
| --- | --- | --- | --- |
| binds |  |  | Flag-tagged SlASAT4 (from UniProt A0A3Q7EQZ9) (enzyme) |
| binds | binds |  | untagged SlASAT2 (from UniProt A0A0U3JNE4) (enzyme) |
